Results reported in PMC9283456.
Results are given in words; binding and its absence hold for the method and conditions named. Binding seen in cells or lysates may run through a third protein. Here binding means that the protein was enriched with, or labelled near, the bait; the list need not be complete. Tags and fused reporters may be left off the sequences shown.

The chains behind the UniProt entries cited, without tags or fusion partners. Where a name states a change or a piece, a line headed by the entry shows the natural chain unless it says otherwise. Residues count along the entry.
UniProt P17301, residues 30-1181: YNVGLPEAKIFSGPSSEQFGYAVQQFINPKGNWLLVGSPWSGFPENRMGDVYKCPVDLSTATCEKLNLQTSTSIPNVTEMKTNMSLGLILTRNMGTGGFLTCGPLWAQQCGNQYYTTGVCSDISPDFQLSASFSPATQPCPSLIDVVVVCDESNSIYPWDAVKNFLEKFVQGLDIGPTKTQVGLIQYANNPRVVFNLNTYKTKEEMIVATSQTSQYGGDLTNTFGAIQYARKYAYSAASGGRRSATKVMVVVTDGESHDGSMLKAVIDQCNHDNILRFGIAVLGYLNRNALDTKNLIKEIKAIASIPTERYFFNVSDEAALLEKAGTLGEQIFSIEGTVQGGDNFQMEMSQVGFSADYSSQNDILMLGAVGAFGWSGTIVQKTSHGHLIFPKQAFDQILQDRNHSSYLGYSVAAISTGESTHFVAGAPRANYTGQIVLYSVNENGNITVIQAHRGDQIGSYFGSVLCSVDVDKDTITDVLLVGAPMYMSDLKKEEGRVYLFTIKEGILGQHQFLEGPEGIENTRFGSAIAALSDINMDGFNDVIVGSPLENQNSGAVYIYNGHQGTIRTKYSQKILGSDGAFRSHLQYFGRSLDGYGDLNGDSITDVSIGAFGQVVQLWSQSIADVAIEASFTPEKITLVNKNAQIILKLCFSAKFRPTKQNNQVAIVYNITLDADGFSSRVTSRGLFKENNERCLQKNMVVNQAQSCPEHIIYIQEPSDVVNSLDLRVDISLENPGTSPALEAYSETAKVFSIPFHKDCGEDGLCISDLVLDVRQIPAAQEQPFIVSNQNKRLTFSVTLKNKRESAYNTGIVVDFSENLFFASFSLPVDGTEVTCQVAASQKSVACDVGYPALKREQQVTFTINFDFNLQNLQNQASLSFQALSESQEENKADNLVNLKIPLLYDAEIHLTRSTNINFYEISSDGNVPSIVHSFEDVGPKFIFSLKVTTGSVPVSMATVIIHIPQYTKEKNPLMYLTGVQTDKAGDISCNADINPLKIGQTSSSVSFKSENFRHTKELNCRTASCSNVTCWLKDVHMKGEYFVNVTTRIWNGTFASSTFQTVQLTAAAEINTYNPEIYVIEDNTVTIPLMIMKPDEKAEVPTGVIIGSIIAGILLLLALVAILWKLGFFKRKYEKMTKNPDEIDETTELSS
UniProt P05556: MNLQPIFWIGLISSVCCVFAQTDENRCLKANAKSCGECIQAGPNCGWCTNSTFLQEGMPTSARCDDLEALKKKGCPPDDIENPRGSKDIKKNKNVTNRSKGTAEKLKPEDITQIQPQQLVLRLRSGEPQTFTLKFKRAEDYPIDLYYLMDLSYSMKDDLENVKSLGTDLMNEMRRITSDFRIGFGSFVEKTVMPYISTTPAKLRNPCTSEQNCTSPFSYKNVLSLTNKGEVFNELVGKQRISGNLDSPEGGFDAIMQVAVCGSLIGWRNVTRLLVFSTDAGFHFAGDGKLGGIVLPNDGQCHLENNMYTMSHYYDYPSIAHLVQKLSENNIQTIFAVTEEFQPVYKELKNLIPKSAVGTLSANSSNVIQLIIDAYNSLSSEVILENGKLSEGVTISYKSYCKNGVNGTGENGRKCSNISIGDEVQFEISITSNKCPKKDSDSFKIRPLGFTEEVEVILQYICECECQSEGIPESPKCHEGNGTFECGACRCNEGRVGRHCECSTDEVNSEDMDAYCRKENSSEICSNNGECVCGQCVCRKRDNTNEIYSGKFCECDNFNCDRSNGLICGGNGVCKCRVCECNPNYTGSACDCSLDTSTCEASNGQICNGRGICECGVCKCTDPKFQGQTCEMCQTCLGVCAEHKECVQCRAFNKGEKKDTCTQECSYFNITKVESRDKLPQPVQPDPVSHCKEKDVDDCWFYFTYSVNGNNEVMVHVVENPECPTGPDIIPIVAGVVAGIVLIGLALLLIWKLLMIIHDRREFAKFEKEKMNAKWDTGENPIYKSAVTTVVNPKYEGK

Biological target: T1, V5-tagged TM4SF1 (Transmembrane-4 L-six family member-1) (human) (UniProt P30408)
T1 sequence: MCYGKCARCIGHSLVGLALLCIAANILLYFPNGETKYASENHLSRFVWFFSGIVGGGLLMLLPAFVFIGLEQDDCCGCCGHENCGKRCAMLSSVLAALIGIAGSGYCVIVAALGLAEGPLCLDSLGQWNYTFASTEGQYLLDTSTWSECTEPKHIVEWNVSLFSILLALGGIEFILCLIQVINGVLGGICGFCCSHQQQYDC
Experiment: affinity purification with mass spectrometry; V5-tagged TM4SF1 stably overexpressed in Eca109 cells on laminin-coated dishes; lysis in 0.1% Triton TBS (20 mM Tris-HCl pH 7.4, 150 mM NaCl); anti-V5-tag mAb-magnetic beads, 4 °C, 2 h; eluate resolved by SDS-PAGE and analysed by mass spectrometry

binding, binds:
integrin α2 (from UniProt P17301 30-1181) (receptor), integrin α6 (receptor), integrin β1 (from UniProt P05556 21-798) (receptor)
